{
  "source": "patent US20180339010A1",
  "about": "“USE OF SHORT SYNTHETIC PEPTIDE FOR THE TREATMENT AND/OR PROPHYLAXIS OF DRY EYE DISEASE” (priority 2015, published 2018)",
  "key": {"[1]": {"system": "desiccating stressed-mice", "experiment": "Corneal fluorescein staining, therapeutic treatment of desiccation stress-induced dry eye", "format": "in vivo, C57BL/6 mice", "settings": "14 days in CEC, then eye drops for 7 days in normal environment (day 21); peptides 100 μM; 1% CMC control 3.6±0.26", "method": "(§1) C57BL/6 mice (7-8 weeks old, each weighted about 18 to 25 g) were used in the present study. All mice were maintained in the animal facility in accordance with the procedures approved by Mackay Memorial Hospital Review Board (Taiwan, R.O. C.). All animal experimental procedures were conducted according to the ARVO Statement for the Use of Animals in Ophthalmic and Vision Research.\n(§2) Dry eyes were induced by placing mice in a controlled environment chamber (CEC) in accordance with procedures previously described by Barabino et al (IVOS (2005) 46(8), 2766-2771). Mice placed in the CEC were exposed to a relative humidity (RH)<25%, temperature of 20 to 22° C., and airflow of 15 L/min, 12 hours per day. Control mice were kept in a normal environment (RH >50%, no air flow, temperature of 21-23° C.) for the same duration.\nAnimals were anesthetized by an intraperitoneal injection of a mixture of zoletil (6 mg/kg) and xylazine (3 mg/kg). Corneal epithelial injury was determined by staining with topical fluorescein (Fluor-I-Strip, Ayerst Laboratories, Philadelphia, Pa.). Corneal fluorescein staining was examined with a slit-lamp biomicroscope under cobalt blue light and photographed with a digital camera. Data is presented as mean±SD. […]"}, "[2]": {"system": "desiccating stressed-mice", "experiment": "Corneal epithelial histopathology (H&E), detached superficial apical cells, therapeutic treatment", "format": "in vivo, C57BL/6 mice", "settings": "14 days in CEC, then eye drops for 7 days; peptides 100 μM, 0.1% Dex", "method": "as §1, §2\nThe corneal epithelial damage was assessed as described previously (Pflugfelder et al., 2005, Am J Pathol 166, 61-71). In brief, the number of detaching apical cells was counted from a full microscope field-of vision from three separate tissue sections, by two independent masked observers, using a 20 objective. Three mice were evaluated in each treatment\nDry eye was created by housing the test animals in CEC for 14 days in accordance with procedures described in the “material and method” section. After confirmation of signs of DED by fluorescein stain (FIG. […]"}},
  "note": "At least one compound was matched to its structure with a doubt left.",
  "data": [
    {"smiles": "C[C@@H]1C[C@H]2[C@@H]3CCC4=CC(=O)C=C[C@]4(C)[C@@]3(F)[C@@H](O)C[C@]2(C)[C@@]1(O)C(=O)CO", "note": "[dexamethasone]", "values": [
      {"measurement": "corneal fluorescein staining score, FIG. 3B", "setting": "[1]", "value": "no therapeutic effect"},
      {"measurement": "detached superficial apical cells on H&E stained cornea sections, observation in words, FIG. 4A", "setting": "[2]", "value": "Detached superficial apical cells were identified"}
    ]}
  ]
}
